{"source": "patent US5739385A", "about": "“Process for preparing optically active carboxylic acids” (Union Carbide Chemicals & Plastics Technology Corporation, priority 1995, dated 1998)", "origin": "cited, not measured here", "details": "background, in words; cited from earlier work"}
{"molecule": "COc1ccc2cc([C@@H](C)C(=O)O)ccc2c1", "note": "[R enantiomer]", "values": [{"measurement": "liver toxicity", "result": "liver toxin"}]}
